From publication PMC7819943, “Rice protein-binding microarrays: a tool to detect cis-acting elements near promoter regions in rice”
This is one part of the list.

Amino acid sequences for entries named in this document (tags omitted).
UniProt Q0JBA9, entry or part of it: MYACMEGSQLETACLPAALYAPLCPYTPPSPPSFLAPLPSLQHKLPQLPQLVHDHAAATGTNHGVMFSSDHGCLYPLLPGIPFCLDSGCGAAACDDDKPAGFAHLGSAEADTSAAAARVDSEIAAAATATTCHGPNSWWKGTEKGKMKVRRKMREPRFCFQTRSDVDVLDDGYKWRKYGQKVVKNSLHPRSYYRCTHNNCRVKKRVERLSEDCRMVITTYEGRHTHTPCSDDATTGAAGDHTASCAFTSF

Biological target: OsWRKY34 (Oryza sativa, UniProt Q0JBA9 1-250)
Experiment: protein-binding microarray (RPBM); PBS, 2% BSA, 51.3 ng/ul salmon testes DNA, 50 uM zinc acetate, 200 nM TF, 25 C, 1 h; high values mean tight binding
Conditions: protein: recombinant; tags: N-terminal polyhistidine and DsRed monomer fusion (pET32a); label: CyDye5-dUTP incorporated in the synthesized complementary strand; 3' TTTTT single-stranded linker to array surface; dsDNA, one strand shown
In short: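 Binding signal here means per-feature fluorescence intensity in arbitrary units. The values were read on an Axon 4000B scanner after a custom Agilent array, double-stranded by primer extension with Cy5-dUTP, was incubated with 200 nM protein at 25 °C for 1 h in PBS with 2% BSA, salmon testes DNA and 50 µM zinc acetate, then washed. The proteins were transcription factors with an N-terminal polyhistidine tag and DsRed, expressed in E. coli BL21-CodonPlus and purified on Ni–NTA.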

Sequence | binding signal
CTCTCCTGTATCTCAAGTCTAATGTTGCAATCACTGACTGCGGAGTCACCTAGTGCAG | 8820 fluorescence intensity (a.u.)
ACGCACCACCCGTACTACGTGCCCACCCGCGCGCGCGCCGCGGAGTCACCTAGTGCAG | 8220 fluorescence intensity (a.u.)
TCGACTTACTGACCTGGCCGGTTCCATATCTCCTAGATCACGGAGTCACCTAGTGCAG | 9550 fluorescence intensity (a.u.)
ATCTTGTCAGTGCTGGTCTATCTCGATTCATGATTCTCTCCGGAGTCACCTAGTGCAG | 10500 fluorescence intensity (a.u.)
ATTAATATATGGTCACACCTGTAATACACACATTGTGTCTCGGAGTCACCTAGTGCAG | 8310 fluorescence intensity (a.u.)
GTGAAGCGATCTGTATTGGTGGAGGGGAGGGGAGGGGATGCGGAGTCACCTAGTGCAG | 24000 fluorescence intensity (a.u.)
TTGCTATGTTCCATGGAGTTGCTATCTTTACCTGTGTTACCGGAGTCACCTAGTGCAG | 10400 fluorescence intensity (a.u.)
TAGGTGTTGCTACTCGCCATTGTCTCATCACGCTCCGCCTCGGAGTCACCTAGTGCAG | 10500 fluorescence intensity (a.u.)
AACTTCTTAGGTTCTAATCAAACACTTAATTTATCTTTTCCGGAGTCACCTAGTGCAG | 8420 fluorescence intensity (a.u.)
GACGTAGTAGCCAATTTATAGACCGATTTTGTTCTGTTTTCGGAGTCACCTAGTGCAG | 9100 fluorescence intensity (a.u.)
AGCCACTTGTCCATTTTCCCCGTGCTTTGCGGTCGAGAGACGGAGTCACCTAGTGCAG | 10100 fluorescence intensity (a.u.)
CTATCTCTCCAACCAAACACTGTCGTATCATCCCACGTGTCGGAGTCACCTAGTGCAG | 8090 fluorescence intensity (a.u.)
GCGATGTCGGTGTGTGGGTGGTGGTATATTTTTCCTTTTTCGGAGTCACCTAGTGCAG | 18000 fluorescence intensity (a.u.)
GCTGGGGAGGGGATGGATGCGGCGGCCGGCAACTCCTCTTCGGAGTCACCTAGTGCAG | 8850 fluorescence intensity (a.u.)
ACTTGTATTCTTCCTCGTCTTCCTCTTCTGTATTTCTGGTCGGAGTCACCTAGTGCAG | 8140 fluorescence intensity (a.u.)
TTGCCGCCTTCTCTCGGTTTGATTGTTGGCGGTTCTTGATCGGAGTCACCTAGTGCAG | 9630 fluorescence intensity (a.u.)
GTTTCAGCTTTCAATTTGGAGTTGATTTTGGGTCTTTTCACGGAGTCACCTAGTGCAG | 8870 fluorescence intensity (a.u.)
TTCATTAAATTTAACGTTGACTATATTTTAATACAATATTCGGAGTCACCTAGTGCAG | 9500 fluorescence intensity (a.u.)
CCCGTGCCGGGCCGGGCCGTGCCGCCCGTTTGGACACCTCCGGAGTCACCTAGTGCAG | 9460 fluorescence intensity (a.u.)
CGTCGACCACCGTTTTCTTGGCCCCGTCTCGCCGCGATCTCGGAGTCACCTAGTGCAG | 13900 fluorescence intensity (a.u.)
AACTTTCGATGTGACACCCAAAAATTTACTTTTCCCCAACCGGAGTCACCTAGTGCAG | 8050 fluorescence intensity (a.u.)

Sequence | binding signal
CCGTATCCAATTTCGACGTCCATCTTACCTTACGTCCACCCGGAGTCACCTAGTGCAG | 12800 fluorescence intensity (a.u.)
CTCCAACCTAACCCCTGCCTGCCTGCATCAACCATATATGCGGAGTCACCTAGTGCAG | 8720 fluorescence intensity (a.u.)
TCTCGGTTAGTTCGGTTCGATCTTTTTCTGCCCACCCTTACGGAGTCACCTAGTGCAG | 8560 fluorescence intensity (a.u.)
TTTGGCCGAACTCTCTCCGATTTGGCGGATCTTCTATTTTCGGAGTCACCTAGTGCAG | 10200 fluorescence intensity (a.u.)
GTGGGGAGGTGGGGAGGAGATAGAGGCGGGATTCAAAAATCGGAGTCACCTAGTGCAG | 12200 fluorescence intensity (a.u.)
TAGACTCTATACTCTACTTCTAATATTCCTTATTTTTAATCGGAGTCACCTAGTGCAG | 8220 fluorescence intensity (a.u.)
CCGTGTTCTTGCTGCTGCTGCTGTTCTTCGTGAGCCTCCTCGGAGTCACCTAGTGCAG | 8810 fluorescence intensity (a.u.)
GCTTGGTCGGGCTGCATGGCAACCAACTATTCCACCTAACCGGAGTCACCTAGTGCAG | 8320 fluorescence intensity (a.u.)
TATCCATCCGAATCTGATCTGTTTTCATCCCTCTAGACTTCGGAGTCACCTAGTGCAG | 9110 fluorescence intensity (a.u.)
CCGCGTACCGCCTCATCTTCTCAACTCGCACCACTCGTTCCGGAGTCACCTAGTGCAG | 11300 fluorescence intensity (a.u.)
ATGACCCTATCCACCCGCATGTGCTTCTGCTTCGTAGTTACGGAGTCACCTAGTGCAG | 15800 fluorescence intensity (a.u.)
AGTATGCCTTATCAACTCTTAAGCACACTTATCATTTTATCGGAGTCACCTAGTGCAG | 10500 fluorescence intensity (a.u.)
TTGCACTGCAGCTCACGCGTCGCTTTTGACCATCCCCGCCCGGAGTCACCTAGTGCAG | 8280 fluorescence intensity (a.u.)
ATCGTGCAACCACTACTTAACCACCACACCAACTTCATCACGGAGTCACCTAGTGCAG | 8710 fluorescence intensity (a.u.)
GGCCCAAGGAGGAAGGGGAGTTTTTATTTTGTTTTCTTTTCGGAGTCACCTAGTGCAG | 12000 fluorescence intensity (a.u.)
CTCTCTCTCCATCCATGGCCGATCGTCGACGCCGTCGGTCCGGAGTCACCTAGTGCAG | 8810 fluorescence intensity (a.u.)
ATCTTTTTCCCGGTTCCATCAATCCCACGACCACGAGTACCGGAGTCACCTAGTGCAG | 8660 fluorescence intensity (a.u.)
TATGTGTCTGTTTCCTTGTGTTCTCTGGTATGTGCGAATTCGGAGTCACCTAGTGCAG | 9270 fluorescence intensity (a.u.)
GATGCTTAGTGCCTTCGACTTGCTCGACAATATTCCCCAACGGAGTCACCTAGTGCAG | 8860 fluorescence intensity (a.u.)
TTGACCCTGCCTACTCCTACGTGGCAATCTGGCATCTGCACGGAGTCACCTAGTGCAG | 8490 fluorescence intensity (a.u.)
ATACATATATTCCACGCTACACGTTGTGGGCTTTTTTTTCCGGAGTCACCTAGTGCAG | 8350 fluorescence intensity (a.u.)

Another view of some results above.
Sequence	binding signal
CCGCGTACCGCCTCATCTTCTCAACTCGCACCACTCGTTCCGGAGTCACCTAGTGCAG	11300 fluorescence intensity (a.u.)
ATGACCCTATCCACCCGCATGTGCTTCTGCTTCGTAGTTACGGAGTCACCTAGTGCAG	15800 fluorescence intensity (a.u.)
AGTATGCCTTATCAACTCTTAAGCACACTTATCATTTTATCGGAGTCACCTAGTGCAG	10500 fluorescence intensity (a.u.)
TTGCACTGCAGCTCACGCGTCGCTTTTGACCATCCCCGCCCGGAGTCACCTAGTGCAG	8280 fluorescence intensity (a.u.)
ATCGTGCAACCACTACTTAACCACCACACCAACTTCATCACGGAGTCACCTAGTGCAG	8710 fluorescence intensity (a.u.)
GGCCCAAGGAGGAAGGGGAGTTTTTATTTTGTTTTCTTTTCGGAGTCACCTAGTGCAG	12000 fluorescence intensity (a.u.)
CTCTCTCTCCATCCATGGCCGATCGTCGACGCCGTCGGTCCGGAGTCACCTAGTGCAG	8810 fluorescence intensity (a.u.)
ATCTTTTTCCCGGTTCCATCAATCCCACGACCACGAGTACCGGAGTCACCTAGTGCAG	8660 fluorescence intensity (a.u.)
TATGTGTCTGTTTCCTTGTGTTCTCTGGTATGTGCGAATTCGGAGTCACCTAGTGCAG	9270 fluorescence intensity (a.u.)
GATGCTTAGTGCCTTCGACTTGCTCGACAATATTCCCCAACGGAGTCACCTAGTGCAG	8860 fluorescence intensity (a.u.)
TTGACCCTGCCTACTCCTACGTGGCAATCTGGCATCTGCACGGAGTCACCTAGTGCAG	8490 fluorescence intensity (a.u.)
